PubChem BioAssay AID1508597, Cure First | 2020
This is an unselected part of the about 2,100 reagents, in one setting of the screen. 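Calls flag viability under 80% in either arm, not effects specific to rucaparib; the reference for percent is not stated.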 A reagent listed more than once was tested more than once; the source does not tell the runs apart. No sequences are given here. The record does not give: the 100% reference.

Screen: 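Survival screen with siRNA in ovarian cancer cells derived from patients, with or without rucaparib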 (primary screen)
Cells: human ovarian carcinoma lines grown from tumours: OCI-P5x (papillary serous) and OCI-C5x (clear cell)
Reagents: siRNA pool against human genes, 1.25 pmol siRNA per well
Duration: 72 h or 96 h, depending on the cell culture
Challenge: rucaparib 20 µM (about IC30) or vehicle, present until read-out
Rucaparib or vehicle: Rucaparib
Cell line: OCI-C5x (clear cell)
Detection: 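ATP luminescence measured at 72 or 96 h according to the culture, then normalised and expressed as percent viability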
Direction: viability, normalised: higher = more viable cells remaining
Rule for the call: 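a well counts as a hit if its normalised viability is under 80 percent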
Calls: active = viability under 80%; inactive = viability 80% or more

Gene,PubChem SID,technical replicate,"viability, normalised (%)",activity call
RTEL1 (regulator of telomere elongation helicase 1),SID405527263,1,44.4,active
RTEL1 (regulator of telomere elongation helicase 1),SID405527263,2,42.7,active
RTEL1 (regulator of telomere elongation helicase 1),SID405527263,3,35.6,active
CTBP1-DT (CTBP1 divergent transcript),SID405526446,1,78.9,active
CTBP1-DT (CTBP1 divergent transcript),SID405526446,2,73.6,active
CTBP1-DT (CTBP1 divergent transcript),SID405526446,3,65.5,active
TSPYL1 (TSPY like 1),SID405526591,1,64,active
TSPYL1 (TSPY like 1),SID405526591,2,58.1,active
TSPYL1 (TSPY like 1),SID405526591,3,39.9,active
"SMN2 (survival of motor neuron 2, centromeric)",SID405527344,1,48,active
"SMN2 (survival of motor neuron 2, centromeric)",SID405527344,2,32.6,active
"SMN2 (survival of motor neuron 2, centromeric)",SID405527344,3,37.3,active
UNG (uracil DNA glycosylase),SID405528500,1,57.3,active
UNG (uracil DNA glycosylase),SID405528500,2,60.5,active
UNG (uracil DNA glycosylase),SID405528500,3,58.2,active
HIRIP3 (HIRA interacting protein 3),SID405526861,1,80.7,inactive
HIRIP3 (HIRA interacting protein 3),SID405526861,2,42.3,active
HIRIP3 (HIRA interacting protein 3),SID405526861,3,43,active
HK2 (hexokinase 2),SID405527627,1,50.8,active
HK2 (hexokinase 2),SID405527627,2,49.6,active
HK2 (hexokinase 2),SID405527627,3,50.1,active
RCOR1 (REST corepressor 1),SID405527239,1,44.8,active
RCOR1 (REST corepressor 1),SID405527239,2,31.3,active
RCOR1 (REST corepressor 1),SID405527239,3,38.8,active
SMPD4 (sphingomyelin phosphodiesterase 4),SID405526721,1,60.9,active
SMPD4 (sphingomyelin phosphodiesterase 4),SID405526721,2,71.2,active
SMPD4 (sphingomyelin phosphodiesterase 4),SID405526721,3,56.5,active
BAIAP2 (BAR/IMD domain containing adaptor protein 2),SID405527741,1,57.7,active
BAIAP2 (BAR/IMD domain containing adaptor protein 2),SID405527741,2,45.6,active
BAIAP2 (BAR/IMD domain containing adaptor protein 2),SID405527741,3,54.6,active

5 successive entries from above, quoted:
Gene,PubChem SID,technical replicate,"viability, normalised (%)",activity call
HK2 (hexokinase 2),SID405527627,3,50.1,active
RCOR1 (REST corepressor 1),SID405527239,1,44.8,active
RCOR1 (REST corepressor 1),SID405527239,2,31.3,active
RCOR1 (REST corepressor 1),SID405527239,3,38.8,active
SMPD4 (sphingomyelin phosphodiesterase 4),SID405526721,1,60.9,active

The list goes on:
Gene,PubChem SID,technical replicate,"viability, normalised (%)",activity call
SUV39H1 (SUV39H1 histone lysine methyltransferase),SID405526345,1,51.6,active
SUV39H1 (SUV39H1 histone lysine methyltransferase),SID405526345,1,49.9,active
SUV39H1 (SUV39H1 histone lysine methyltransferase),SID405526345,2,61.5,active
SUV39H1 (SUV39H1 histone lysine methyltransferase),SID405526345,2,34.2,active
SUV39H1 (SUV39H1 histone lysine methyltransferase),SID405526345,3,59.1,active
SUV39H1 (SUV39H1 histone lysine methyltransferase),SID405526345,3,35.4,active
TSSK1A (testis specific serine kinase 1A (pseudogene)),SID405527751,1,73.2,active
TSSK1A (testis specific serine kinase 1A (pseudogene)),SID405527751,2,68.9,active
TSSK1A (testis specific serine kinase 1A (pseudogene)),SID405527751,3,85.6,inactive
KDM4D (lysine demethylase 4D),SID405526936,1,37,active
KDM4D (lysine demethylase 4D),SID405526936,2,28.1,active
KDM4D (lysine demethylase 4D),SID405526936,3,26.5,active
PRKG1 (protein kinase cGMP-dependent 1),SID405527534,1,52.3,active
PRKG1 (protein kinase cGMP-dependent 1),SID405527534,2,53.4,active
PRKG1 (protein kinase cGMP-dependent 1),SID405527534,3,45.4,active
WRNIP1 (WRN helicase interacting protein 1),SID405528338,1,42,active
WRNIP1 (WRN helicase interacting protein 1),SID405528338,2,55.9,active
WRNIP1 (WRN helicase interacting protein 1),SID405528338,3,42.8,active
IP6K3 (inositol hexakisphosphate kinase 3),SID405527386,1,65.1,active
IP6K3 (inositol hexakisphosphate kinase 3),SID405527386,2,53.8,active
IP6K3 (inositol hexakisphosphate kinase 3),SID405527386,3,72.2,active
IP6K3 (inositol hexakisphosphate kinase 3),SID405528404,1,69.8,active
IP6K3 (inositol hexakisphosphate kinase 3),SID405528404,2,73.6,active
IP6K3 (inositol hexakisphosphate kinase 3),SID405528404,3,81.8,inactive
ZDHHC1 (zDHHC palmitoyltransferase 1),SID405526645,1,64.5,active
ZDHHC1 (zDHHC palmitoyltransferase 1),SID405526645,2,55.3,active
ZDHHC1 (zDHHC palmitoyltransferase 1),SID405526645,3,52.3,active
